Like-named read-outs stand apart in the source and are kept apart here. These are yes or no findings as the source states them, for the method shown. In cells and extracts the contact can be indirect. Binding can be weak; no strength is given. For part of these data: Where a sequence is shown, tags or fusion partners need not be part of it.
Experiments:
[1] = molecular target: T1, myc-tagged SYNJ2BP WT (shRNA-resistant), lentivirally overexpressed (rat) (UniProt Q9WVJ4); assay: co-IP
T1 sequence: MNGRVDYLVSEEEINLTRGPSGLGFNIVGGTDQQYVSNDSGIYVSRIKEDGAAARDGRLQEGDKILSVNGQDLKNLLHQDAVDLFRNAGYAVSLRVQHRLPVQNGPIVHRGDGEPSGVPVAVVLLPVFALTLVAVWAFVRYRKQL

Chains of the proteins cited; added tags and fusions are not shown.
UniProt Q9D6K5: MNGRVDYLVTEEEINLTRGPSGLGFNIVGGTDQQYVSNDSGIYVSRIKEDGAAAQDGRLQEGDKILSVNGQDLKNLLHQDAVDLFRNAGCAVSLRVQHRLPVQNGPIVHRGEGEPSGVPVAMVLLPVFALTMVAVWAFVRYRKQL

[2] = molecular target: Synaptojanin 2 binding protein (SYNJ2BP), endogenous (mouse (endogenous in primary hippocampal neurons)) (UniProt Q9D6K5); assay: proximity ligation
[3] = molecular target: T1, myc-tagged SYNJ2BP WT (shRNA-resistant), lentivirally overexpressed (rat); assay: co-IP; remark: listed apart in the source

Measured: binding

Synaptojanin 2 (SYNJ2), endogenous (from UniProt Q9D2G5-6)
binds: all assays above
